According to PubChem BioAssay AID493014 (National Center for Advancing Translational Sciences (NCATS), 2011):
In all, about 340,000 compounds went through this assay and about 170 (0.05%) were called active. Inconclusive means that the source gave no clear call. Such entries were picked first, then a sample of the others. Calls follow the shape of the dose curve; as a rule, active = well fitted inhibition curve with a large enough effect in the signal ratio, with a control signal flat (not every such curve was filed as active); inconclusive = small, poorly fitted or top-dose-only effect, or effect the other way, or a change in a side signal; inactive = flat fitted curve, though single readings scatter; the % refers to the signal ratio. Potencies beside an inconclusive call are fits to weak or partial responses and may not hold up.

Assay: qHTS Assay to Find Inhibitors of Chronic Active B-Cell Receptor Signaling;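 as to activity change, negative = inhibition: plate controls were basal doxycycline-induced cells for no effect and cells given 10 µM MG132 for full effect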
Details: ABC-DLBCL IkBa-CBG/CBR reporter, luminescence ratio (green luciferase fused to IkBa over red control in TMD8 lymphoma cells), 4 h; activity change, negative = inhibition: at 46.1 µM (top of the series) unless noted
Method in brief: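 TMD8 ABC-DLBCL cells carrying doxycycline-inducible green luciferase fused to IkappaBalpha plus unfused red luciferase were exposed to compounds (up to 46 uM) for 4 hrs at 37C. Activity came from the overlap-corrected green/red luminescence ratio.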
Potency is read from the fitted curve at half-maximal effect.

| SMILES | activity change, negative = inhibition | Potency |
| --- | --- | --- |
| COc1nc2ccccc2nc1N1CCN(Cc2ccc3c(c2)OCO3)CC1 | inconclusive: 4.32% |  |
| Cc1cc(C(=O)N/N=C/c2c[nH]c3ccccc23)cs1 |  | inconclusive: 29.1 µM [falling, single point] |
| CN(CC(=O)Nc1ccc(F)cc1)C(=O)CSc1nccn1C |  | inconclusive: 23.1 µM [falling, partial curve] |
| Cc1c(C(=O)C(=O)N2CC=C(c3ccccc3)CC2)c2ccccc2n1C | inconclusive: -18.4% |  |
| O=C(NCC1CC1)Nc1cccc(Cl)c1 | inactive |  |
| COc1ccc(C(=O)N/N=C(\Cc2ncc[nH]2)c2ccccc2)cc1 |  | inconclusive: 35.5 µM [falling, single point] |
| Cc1ccc(OC(=O)c2c(C)nn(-c3ccccc3)c2C)cc1 | inconclusive: 10.9% |  |
| COCCN1C(=O)C(O)=C(C(=O)c2cccs2)C1c1ccccc1 (centres undefined) | inactive |  |
| O=C(C1=C(c2ccccc2)C(=O)c2ccccc2C1=O)c1ccccc1 |  | inconclusive: 3.66 µM [falling, partial curve, poor fit] |
| C/C(=C\C(=O)c1ccc(Br)cc1)NNC(=O)c1ccc(O)cc1 |  | inconclusive: 1 µM [falling, partial curve] |
| O=S(=O)(c1ccc(NC(=S)Nc2ccc3c(c2)OCO3)cc1)N1CCOCC1 | inconclusive: 8.06% |  |
| CCOc1ccc(-c2cc(C(=O)O)c3ccccc3n2)cc1 |  | inconclusive: 0.00517 µM [rising, full curve, poor fit] |
| Cc1ccccc1N=Nc1c(C)[nH]n(C(N)=S)c1=O |  | inconclusive: 0.651 µM [falling, partial curve, poor fit] |
| O=C(O)c1cc(-c2ccc(O)cc2)nc2ccccc12 |  | inconclusive: 14.6 µM [falling, partial curve] |
| O=C(CNC(=O)Cc1ccccc1)NCC(=O)OCC(=O)c1cccc2ccccc12 |  | inconclusive: 4.11 µM [rising, full curve, poor fit] |
| O=C1N(Cc2cccnc2)C[C@@H]2C[C@@H](c3ccc(C(F)(F)F)cc3)N3CCC[C@@]123 | inactive |  |
| CCOC(=O)c1c(NC(=O)CSc2ncn[nH]2)sc(C)c1C | inconclusive: -22.9% |  |
| COc1cc(O)c(C(CC(=O)N2CCCC(C)C2)c2ccc3c(c2)OCO3)c(OC)c1 (centres undefined) | inconclusive: 6.97% |  |
| O=C(/C=C/c1ccc(S(=O)(=O)N2CCOCC2)cc1)NCc1ccccc1 | inconclusive: -11.9% |  |
| C=C(C)CSc1cc(C)nc2c(-c3ccccc3)c(C)nn12 |  | inconclusive: 11.2 µM [rising, partial curve] |
| COc1ccccc1NC(=O)N1CCN(c2nnc(C)c3c(C)n(-c4ccccc4)nc23)CC1 |  | inconclusive: 11.2 µM [falling, partial curve, poor fit] |
| CC(=O)c1ccc2noc(-c3ccc(Cl)cc3)c2c1 | inactive |  |
| CCOC(=O)N1CCC(N(C(=O)Nc2ccc(Cl)c(Cl)c2)C(C)CC)CC1 (centres undefined) | inconclusive: 10.1% |  |
| CN(C)c1ccc(NS(=O)(=O)c2ccc(-c3csnn3)cc2)cc1 |  | inconclusive: 17.8 µM [falling, partial curve] |
| O=C(OC1CCN(c2ncc(C(F)(F)F)cc2Cl)CC1)c1cccc(C(F)(F)F)c1 | inactive |  |

| SMILES | activity change, negative = inhibition | Potency |
| --- | --- | --- |
| CC(NC(=O)/C(C#N)=C/c1ccc(Cl)c([N+](=O)[O-])c1)c1ccccc1 (centres undefined) | inconclusive: 14.1% |  |
| COc1ccc([C@H]2CC(=O)C=C(c3ccc(F)cc3OCc3ccccc3)C2)cc1 | inactive |  |
| Cc1ccsc1C(=O)Nc1ccc(O)c(-c2nc3ccccc3s2)c1 | inactive |  |
| COC(=O)c1c(NC(=O)C(=O)NCC2CCCO2)sc2c1CC(C)(C)OC2 (centres undefined) | inconclusive: -0.0743% |  |
| Cc1cc(=O)oc2cc(Oc3ccc(C(N)=O)cc3[N+](=O)[O-])ccc12 |  | inconclusive: 22.4 µM [falling, single point] |
| COc1ccc(S(=O)(=O)N2CCC(N3CCCCC3)CC2)cc1 | inactive |  |
| O=C(NCc1ccccc1)C(=O)NCC1COc2ccccc2O1 (centres undefined) |  | inconclusive: 18.4 µM [falling, single point] |
| CCNC(=S)N/N=C(\C)c1ccc2ccccc2c1OC(F)F |  | inconclusive: 35.5 µM [cytotoxic, single point] |
| CC(=O)c1sc(Nc2nc3ccc(F)cc3s2)nc1C |  | inconclusive: 22.4 µM [falling, single point] |
| O=C(CCN1C(=O)S/C(=C\c2ccccc2)C1=O)Nc1ccc(O)cc1C(=O)O | inconclusive: -4.23% |  |
| CC(=O)C1=C(C)NC(SCC(N)=O)=C(C#N)C1c1ccco1 (centres undefined) | inactive |  |
| CCN(CC)S(=O)(=O)c1cccc(C(=O)N/N=C/c2ccccn2)c1 | inactive |  |
| Cc1cccc(-n2cnc(C(=O)Nc3cccnc3)c2)n1 |  | inconclusive: 3.55 µM [falling, partial curve] |
| COc1ccc(CN(C)CC(=O)Nc2cccc(S(=O)(=O)N3CCCC3)c2)cc1F |  | inconclusive: 8.2 µM [falling, single point] |
| C/C(CC(=O)Nc1ccc(Cl)cc1Cl)=N\NC(=O)C(=O)NCCO |  | inconclusive: 18.4 µM [falling, single point] |
| CC(=O)c1sc(NC(=O)CN2C(=O)NC3(CCCC3)C2=O)nc1-c1ccccc1 | inconclusive: -12.2% |  |
| COc1ccc(C(=O)C[n+]2ccc(N)c(C)c2C)cc1 | inconclusive: 3.94% |  |
| Oc1c(Cl)cc(Cl)c2cccnc12 |  | inconclusive: 12.6 µM [falling, partial curve] |
| CCc1ccc(N2CC(C(=O)NCc3ccc4c(c3)OCO4)CC2=O)cc1 (centres undefined) | inconclusive: -2.45% |  |
| Cc1cccc(-n2nc(C)c3c2NC2=C(C(=O)CCC2)C3c2ccccn2)c1 (centres undefined) |  | inconclusive: 15.8 µM [falling, single point] |
| c1ccc(-n2c3ccccc3c3ccccc32)cc1 | inconclusive: 27.9% |  |
| COc1cc(OC)cc(-c2nc3ccccc3c(=O)o2)c1 | inconclusive: 481% |  |
| Cc1ccc2nc(-c3ccc(NC(=O)COC(=O)c4ccc(=O)[nH]c4)cc3)sc2c1 | inactive |  |
| N=C1SCC(=O)N1c1ncc(Cc2cccc(Cl)c2)s1 |  | inconclusive: 35.5 µM [falling, single point] |

In another format: entries from further up.
SMILES,"activity change, negative = inhibition",Potency
COc1ccc([C@H]2CC(=O)C=C(c3ccc(F)cc3OCc3ccccc3)C2)cc1,inactive,
Cc1ccsc1C(=O)Nc1ccc(O)c(-c2nc3ccccc3s2)c1,inactive,

An excerpt from above in order of length of the SMILES, low to high:

| SMILES | activity change, negative = inhibition | Potency |
| --- | --- | --- |
| Cc1cccc(-n2cnc(C(=O)Nc3cccnc3)c2)n1 |  | inconclusive: 3.55 µM [falling, partial curve] |
| Cc1cc(=O)oc2cc(Oc3ccc(C(N)=O)cc3[N+](=O)[O-])ccc12 |  | inconclusive: 22.4 µM [falling, single point] |
| CC(=O)c1sc(NC(=O)CN2C(=O)NC3(CCCC3)C2=O)nc1-c1ccccc1 | inconclusive: -12.2% |  |
